# Results: PMC10572468
# Sequences of proteins named here, by UniProt entry; tags and fusion partners are left off.
# UniProt Q9UIH9: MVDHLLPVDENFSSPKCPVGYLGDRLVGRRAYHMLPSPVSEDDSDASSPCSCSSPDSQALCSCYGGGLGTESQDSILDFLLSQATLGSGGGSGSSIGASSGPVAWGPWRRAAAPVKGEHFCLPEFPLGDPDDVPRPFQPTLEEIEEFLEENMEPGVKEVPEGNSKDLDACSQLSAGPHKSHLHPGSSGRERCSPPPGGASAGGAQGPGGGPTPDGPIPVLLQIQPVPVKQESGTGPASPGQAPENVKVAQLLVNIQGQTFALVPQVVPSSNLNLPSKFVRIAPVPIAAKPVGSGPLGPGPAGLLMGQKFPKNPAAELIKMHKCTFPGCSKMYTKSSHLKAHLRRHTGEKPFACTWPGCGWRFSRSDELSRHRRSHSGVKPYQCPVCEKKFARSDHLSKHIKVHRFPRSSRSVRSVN
# Results are given in words; binding and its absence hold for the method and conditions named. Binding seen in cells or lysates may run through a third protein.
# Target: T1, nuclear factor erythroid 2-related factor 2 (UniProt Q16236)
# T1 sequence: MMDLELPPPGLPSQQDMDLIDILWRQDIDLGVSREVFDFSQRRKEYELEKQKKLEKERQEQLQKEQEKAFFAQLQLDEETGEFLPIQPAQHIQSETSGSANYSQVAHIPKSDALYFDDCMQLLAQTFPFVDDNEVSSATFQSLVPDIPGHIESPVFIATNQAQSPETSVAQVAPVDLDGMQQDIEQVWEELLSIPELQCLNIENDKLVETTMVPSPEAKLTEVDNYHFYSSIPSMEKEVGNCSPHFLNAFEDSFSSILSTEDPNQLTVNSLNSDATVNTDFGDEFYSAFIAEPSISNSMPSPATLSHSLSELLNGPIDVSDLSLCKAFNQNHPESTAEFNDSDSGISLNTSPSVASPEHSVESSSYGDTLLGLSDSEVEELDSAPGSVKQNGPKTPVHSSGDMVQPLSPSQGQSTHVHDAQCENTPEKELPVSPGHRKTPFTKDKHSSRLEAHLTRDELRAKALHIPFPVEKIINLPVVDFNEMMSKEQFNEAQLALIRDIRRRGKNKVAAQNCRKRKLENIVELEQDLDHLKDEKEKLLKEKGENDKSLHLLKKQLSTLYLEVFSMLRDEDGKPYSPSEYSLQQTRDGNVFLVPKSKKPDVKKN
# Experiment: co-IP; cells lysed in RIPA buffer with 10 mmol/L N-ethylmaleimide and protease and phosphatase inhibitors; NRF2 antibody and protein A beads, 4 °C, 1 h; Western blot with KLF15 antibody
substance,measurement,value
Krüppel-like factor 15 (from UniProt Q9UIH9 1-416),binding,no binding
